# From PubChem BioAssay AID445 (National Center for Advancing Translational Sciences (NCATS), 2006)
# The list shows a part of the results. The main result of the screen is listed elsewhere. These columns were measured beside it and carry no call. Most of these compounds were active or inconclusive in the main read-out, so they are no random draw. Potencies come from curve fits of mixed quality, noted in brackets.
# Assay: IkB Signaling
# Conditions: ABC-DLBCL IkBa-CBG/CBR dual luciferase ratio (green luciferase fused to IkBa over red control in OCI-Ly3 lymphoma cells), 4 h
# Summary of the method: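 In this assay, an IκBα–CBG68 fusion accumulates when IKK-driven degradation is blocked; native CBR normalizes for cell number. OCI-Ly3 cells were treated 4 h with compound and doxycycline, then green and red light read after Chroma-Glo addition.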
# [1] = measured here: control luc red channel unless noted
smiles,measurement,setting,value
CCCCCCc1cc2cc(-c3cn4c(n3)sc3cc(OC)ccc34)c(=O)oc2cc1O,AC50,[1],"0.126 µM [falling, full curve]"
O=C(CN1C(=O)COc2ccc(S(=O)(=O)N3CCOCC3)cc21)N1CCN(c2ccc(Cl)cc2)CC1,AC50,[1],"39.8 µM [falling, single point]"
OC(CNc1nc2ccccc2s1)c1ccccc1 (stereo unspecified),AC50,[1],"7.94 µM [falling, full curve, poor fit]"
CCOC(=O)c1cccc(NC(=O)CC2C(=O)N(c3ccc(F)cc3)C(=O)N2Cc2cccc(OC)c2)c1 (stereo unspecified),AC50,[1],"12.6 µM [falling, partial curve]"
CCOC(=O)c1ccc(Nc2nc3ccccc3n3c(C)nnc23)cc1,AC50,[1],"5.01 µM [falling, full curve]"
CC(C)CN(CC(C)C)S(=O)(=O)c1ccc(C(=O)Nc2sc3c(c2C(N)=O)CCN(C(C)C)C3)cc1,AC50,[1],"25.1 µM [falling, partial curve]"
CCC(c1nnnn1C1CCCC1)N(Cc1cccs1)Cc1cc2cccc(C)c2[nH]c1=O (stereo unspecified),AC50,[1],"3.98 µM [falling, partial curve]"
CCOc1ccc(-c2noc(CSc3nnc(Cc4ccccc4)n3-c3ccc(F)cc3)n2)cc1,AC50,[1],"20 µM [falling, partial curve]"
Cc1cccc(N2CCN(c3ncnc4c3cnn4-c3ccc(Cl)cc3)CC2C)c1 (stereo unspecified),AC50,[1],"3.16 µM [falling, partial curve, poor fit]"
COc1cccc(C(=O)Nc2c3c(nn2-c2ccc(C)cc2C)CS(=O)(=O)C3)c1OC,AC50,[1],"3.16 µM [rising, partial curve]"
CCC(=O)Nc1ccccc1C(=O)OCc1cc(=O)n2cc(C)sc2n1,AC50,[1],"20 µM [falling, partial curve]"
CC(C)CCN1C(=O)c2ccccc2CC1(C)C(=O)NC1CCCCC1 (stereo unspecified),AC50,[1],"39.8 µM [falling, single point]"
CCN(CC)S(=O)(=O)c1cccc(-c2nnc(SCCOc3ccccc3C)o2)c1,AC50,[1],"15.8 µM [falling, partial curve]"
O=C(Nc1nc(-c2cc(Cl)sc2Cl)cs1)c1cccs1,AC50,[1],"15.8 µM [falling, partial curve]"
CC1CC(=O)N(CC(=O)Nc2ccc(OC(F)(F)F)cc2)c2ccccc2S1 (stereo unspecified),AC50,[1],"12.6 µM [falling, partial curve]"
CCCN1CCN(C(=O)Cn2ncc3c4ccccc4n(Cc4cccc(Cl)c4)c3c2=O)CC1,AC50,[1],"12.6 µM [falling, partial curve]"
Cc1cccc(N(C)C(=O)c2cc3c(=O)oc4ccc(C)cc4c3s2)c1,AC50,[1],"31.6 µM [rising, partial curve]"
O=C(Nc1c(C(=O)N2CCN(c3ccccc3)CC2)oc2ccccc12)c1ccccc1F,AC50,[1],"39.8 µM [falling, single point]"
Cc1ccc(CCNC(=O)c2cc3cc(S(=O)(=O)N4CCCCC4)ccc3n2C)cc1,AC50,[1],"5.01 µM [falling, partial curve]"
COc1ccc(-c2cc(C(=O)Nc3sc4c(c3C#N)CCCC4)no2)cc1OC,AC50,[1],"0.02 µM [rising, full curve, poor fit]"
COc1cccc(NC(=O)c2ccc3nc(Cc4ccccc4)oc3c2)c1,AC50,[1],"15.8 µM [falling, partial curve]"
Cc1ccccc1CNc1ncnc2c1ncn2[C@@H]1O[C@@H](CO)[C@H](O)[C@@H]1O,AC50,measured here: IkB-luc green channel,"1.26 µM [rising, full curve, poor fit]"
same,AC50,measured here: control luc red channel,"0.316 µM [rising, full curve, poor fit]"
O=C(Nc1ccc(N2CCN(C(=O)c3ccccc3)CC2)cc1)c1ccc(Br)o1,AC50,[1],"20 µM [falling, partial curve]"
O=C(CSc1nc2cc(S(=O)(=O)N3CCOCC3)ccc2o1)NC1CCCc2ccccc21 (stereo unspecified),AC50,[1],"39.8 µM [falling, single point]"
CCCCc1ccc(NC(=O)C2(C)Cc3ccccc3C(=O)O2)cc1 (stereo unspecified),AC50,[1],"20 µM [falling, partial curve]"
Cc1cccc(-c2nc(C(N)=O)c3c(n2)n(-c2ccc4c(c2)OCO4)c(=O)n3C)c1,AC50,[1],"0.0794 µM [falling, full curve, poor fit]"
CCc1ccc(C2CC(=O)Oc3c2c(=O)n(C)c2ccccc32)cc1 (stereo unspecified),AC50,[1],"25.1 µM [falling, partial curve]"
CCOC(=O)CSc1nc2ccc(NC(=O)COc3ccccc3C)cc2s1,AC50,[1],"2 µM [falling, full curve]"
O=C(Nc1ccc(Cl)cc1)c1cc2c(-c3ccccc3)nn(-c3ccccc3)c2s1,AC50,[1],"15.8 µM [falling, single point]"
CCOC(=O)c1c(NC(C)=O)c2c3c(sc2n1Cc1nc(-c2cccc(C)c2)oc1C)CCCC3,AC50,[1],"39.8 µM [falling, single point]"

# An excerpt taken from the entries so far, as a working copy:
smiles,measurement,setting,value
CCOc1ccc(-c2noc(CSc3nnc(Cc4ccccc4)n3-c3ccc(F)cc3)n2)cc1,AC50,[1],"20 µM [falling, partial curve]"
Cc1cccc(N2CCN(c3ncnc4c3cnn4-c3ccc(Cl)cc3)CC2C)c1 (stereo unspecified),AC50,[1],"3.16 µM [falling, partial curve, poor fit]"
